Assay [1] deals with recombinant human IL-2 with a 6×his tag (hIL-2-His) (human) (UniProt P60568). Description: yeast surface display flow cytometry, 0.1 nM hIL-2, MFI normalized to surface expression.
The target is the same in assay [2]. Description: yeast surface display, flow cytometry.
For assay [3] the target is unchanged. Description: yeast surface display selection against human IL-2.

Amino acid sequences for entries named in this document (tags omitted). A change or cut given only in a name is not applied to a line headed by its entry. Chains listed by the source or under a name are the forms on record and can include a tag or linker.
recombinant human IL-2 with a 6×his tag (hIL-2-His) (P60568, form named): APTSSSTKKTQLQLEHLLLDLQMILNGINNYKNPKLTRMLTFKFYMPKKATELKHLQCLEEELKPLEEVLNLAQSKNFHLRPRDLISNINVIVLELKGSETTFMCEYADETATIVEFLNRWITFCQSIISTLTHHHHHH

These are yes or no findings as the source states them, for the method shown. Some results given as binding are weak or reduced against the parent protein; the word gives no strength.

B1: clone 1 (17.021), yeast-displayed scFv (scFv, V domains shown)
VH: EIQLQQSGPELRRPGSSVKLSCKASGYNITDNLIHWVRHRPEHGLEWIGWIDPEDGETRYAQKFQSKATLTADTSSNAAYMQLSSLTPEDTATYFCARSLDSTYIYPFAYWGQGTLVTVSS
VL: DIVMTQSPFSLAVSEGEMVTINCKSSQSLLRSGNQKNYLAWYQQKPGQSPKLLIYYASTGQSGVPDRFIGSGSGTDFTLTISDVQAEDLADYYCLQHYQSPPTFGAGTKLELK
B1: the binding entry in assay [1] and in assay [2] was “binds” in each case.

B2: clone 2 (17.022), yeast-displayed scFv (scFv, V domains shown)
VH: EIQLQQSGPELRRPGSSVKLSCKASGYNITDYLIHWVRHRPEHGLEWIGWIDPEDGETRYAQKFQSKATLTADTSSNAAYMQLSSLTPEDTATYFCARSLDSTWIYPFAYWGQGTLVTVSS
VL: DIVMTQSPFSLAVSEGEMVTINCKSSQSLLRSGNQKNYLAWYQQKPGQSPKLLIYYASTGQSGVPDRFIGSGSGTDFTLTISDVQAEDLADYYCLQHYITPPTFGAGTKLELK
For the molecule B2, the binding result in assay [1] and in assay [2] was “binds” in each case.

B3: clone 5 (17.030), yeast-displayed scFv (scFv, V domains shown)
VH: EIQLQQSGPELRRPGSSVKLSCKASGYNITDYLIHWVRHRPEHGLEWIGWIDPEDGETRYAQKFQSKATLTADTSSNAAYMQLSSLTPEDTATYFCARSLDSTYDYPFAYWGQGTLVTVSS
VL: DIVMTQSPFSLAVSEGEMVTINCKSSQSLLRSGNQKNYLAWYQQKPGQSPKLLIYYASTGQSGVPDRFIGSGSGTDFTLTISDVQAEDLADYYCLQHYISPPTFGAGTKLELK
Take B3: the binding entry in assay [1] and in assay [2] was “binds” in each case.

B4: clone 6 (17.035), yeast-displayed scFv (scFv, V domains shown)
VH: EIQLQQSGPELRRPGSSVKLSCKASGYNITDYLIHWVRHRPEHGLEWIGWIDPEDGETRYAQKFQSKATLTADTSSNAAYMQLSSLTPEDTATYFCARSLDSTYNYPFAYWGQGTLVTVSS
VL: DIVMTQSPFSLAVSEGEMVTINCKSSQSLLRSGNQKNYLAWYQQKPGQSPKLLIYYASTGQSGVPDRFIGSGSGTDFTLTISDVQAEDLADYYCLQHWISPPTFGAGTKLELK
Turning to B4, the binding result in assay [1] and in assay [2] was “binds” throughout.

B5: clone 4 (17.023), yeast-displayed scFv (scFv, V domains shown)
VH: EIQLQQSGPELRRPGSSVKLSCKASGYNITDYLIHWVRHRPEHGLEWIGWIDPEDGETRYAQKFQSKATLTADTSSNAAYMQLSSLTPEDTATYFCARQLDSTYIYPFAYWGQGTLVTVSS
VL: DIVMTQSPFSLAVSEGEMVTINCKSSQSLLRSGNQKNYLAWYQQKPGQSPKLLIYYASTGQSGVPDRFIGSGSGTDFTLTISDVQAEDLADYYCLQHYITPPTFGAGTKLELK
For the molecule B5, the binding entry in assay [1] and in assay [2] was “binds” throughout.

B6: clone C #7 (173R5C1-17.002) (scFv)
scFv: EIQLQQSGPELRRPGSSVKLSCKASGYNITDYLIHWVRHRPEHGLEWIGWIDPEDGETRYAQKFQSKATLTADTSSNAAYMQLSSLTPEDTATYFCARSLDSTPIYPFAYWGQGTLVTVSSGGGGSGGGGSGGGGSDIVMTQSPFSLAVSEGEMVTINCKSSQSLLRSGNQKNYLAWYQQKPGQSPKLLIYYASTGQSGVPDRFIGSGSGTDFTLTISDVQAEDLADYYCLQHYITPPTFGAGTKLELK
In the case of B6, the binding result in assay [3] is reported as “binds”.

Source of the values: US20240287169A1 (AULOS BIOSCIENCE, published 2024).
